Results deposited as PubChem BioAssay AID743454 (Peter MacCallum Cancer Centre, 2014)
This is a random part of about 18,000 deposited reagents. Of all reagents, 450 (2.5%) are marked active. 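Single biological run; no consistent viability z cut-off exists, so the class columns, not z-scores, define the calls.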 Unmarked entries are inactive.

Assay: 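Genes whose loss kills vorinostat-resistant colon cancer cells under vorinostat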 (primary screen)
Cells: human HCT116-VR colon cancer cells, selected for vorinostat resistance
Reagents: siRNA pool against human genes, 40 nM siRNA pool
Timing: vorinostat for 24 h, read-out about 72 h after transfection
Treatment: vorinostat at 2.5 µM final
Read-out: 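Two measures, CellTiter-Fluor viability and luminescent caspase 3/7 activity, each as fold change against same-plate mock wells, mean of duplicates, then screen-wide robust z-score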
Direction: viability robust z-score: higher = more viable cells than screen typical; caspase robust z-score: higher = more caspase 3/7 activity than screen typical
Call rule: 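a knock-down is a hit when classed RV1 or RV2 for lowered viability, or CA1 or CA2 for caspase activation; those lethal without drug were dropped; hits were retested singly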

no.	gene	viability hit class	caspase hit class	viability robust z-score	caspase robust z-score
1	FOXI2	no change	no change	1.29	-0.68
2	FXYD4	no change	no change	-0.31	-0.9
3	QRICH1	no change	no change	-0.09	-0.19
4	SNX33	no change	no change	0.01	-0.22
5	VCX3A	no change	no change	-0.35	1.6
6	OR1B1	no change	no change	-2.15	3.79
7	CRNKL1	no change	no change	-3.59	0.53
8	ZNF703	no change	no change	1.29	-0.08
9	ANKRD44	no change	no change	0.6	-0.52
10	FBXO41	no change	no change	-0.62	-0.36
11	IST1	no change	no change	0.52	-0.9
12	NELL1	no change	no change	0.68	-0.76
13	GBA1	no change	no change	-0.38	0.42
14	ABR	no change	no change	-0.48	0.78
15	SELL	no change	no change	0.35	-0.05
16	KCNK13	no change	no change	-0.38	2.34
17	CAPN6	no change	no change	0.96	4
18	SERPINE2	no change	no change	-1.35	2.71
19	SEPTIN3	no change	no change	0.23	-0.07
20	WNT8B	no change	no change	0.69	1.98
21	METAP1D	no change	no change	-0.23	-1
22	PTPMT1	no change	no change	-1.19	-0.39
23	ACTR1B	no change	no change	1.42	0.82
24	TRIM55	no change	no change	0.1	3.96
25	ARIH1	no change	no change	0.06	-0.72
26	ANKRD7	no change	no change	-0.45	-1.02
27	HOXD11	no change	no change	-1.44	0.7
28	RPN2	no change	no change	0.55	2.24
29	IL9R	no change	no change	-0.99	2.05
30	MPDU1	no change	no change	0.58	0.69
31	ASB4	no change	no change	-0.1	-0.9
32	DRG1	no change	no change	0.26	-0.29
33	MIR1915HG	no change	no change	0.42	0.06
34	EIF4EBP2	no change	no change	-0.13	1.88
35	SPAG17	no change	no change	0.86	-0.11
36	RCSD1	no change	no change	-0.81	-0.66
37	SLC25A4	no change	no change	0.4	-0.92
38	BTAF1	no change	no change	-0.21	-0.04
39	CLK3	no change	no change	-0.22	1.74

2 entries from above, arranged by “caspase robust z-score”, lowest first:
gene	viability hit class	caspase hit class	viability robust z-score	caspase robust z-score
SPAG17	no change	no change	0.86	-0.11
EIF4EBP2	no change	no change	-0.13	1.88
